Experiment [1] concerns the target MBP–xDnaJB6-L (Xenopus laevis). As to the kind of experiment: pull-down; MBP–xDnaJB6-L on protein A Dynabeads coated with anti-MBP antibody, incubated in CSF-arrested Xenopus egg extract with 15 μM RanQ69L-GTP, 15 min at 20°C then 30 min on ice; three washes in CSF-XB and one in PBS containing NP40; western blot; only the target purified.
Experiment [2] concerns the target MBP–xDnaJB6-L (Xenopus laevis). As to the kind of experiment: condition: only without RanGTP added to the extract; pull-down; MBP–xDnaJB6-L on protein A Dynabeads coated with anti-MBP antibody, incubated in CSF-arrested Xenopus egg extract without RanGTP, 15 min at 20°C then 30 min on ice; three washes in CSF-XB and one in PBS containing NP40; western blot; only the target purified.

By UniProt entry, the sequences of proteins in these tests, tags left out.
UniProt Q6PCJ1: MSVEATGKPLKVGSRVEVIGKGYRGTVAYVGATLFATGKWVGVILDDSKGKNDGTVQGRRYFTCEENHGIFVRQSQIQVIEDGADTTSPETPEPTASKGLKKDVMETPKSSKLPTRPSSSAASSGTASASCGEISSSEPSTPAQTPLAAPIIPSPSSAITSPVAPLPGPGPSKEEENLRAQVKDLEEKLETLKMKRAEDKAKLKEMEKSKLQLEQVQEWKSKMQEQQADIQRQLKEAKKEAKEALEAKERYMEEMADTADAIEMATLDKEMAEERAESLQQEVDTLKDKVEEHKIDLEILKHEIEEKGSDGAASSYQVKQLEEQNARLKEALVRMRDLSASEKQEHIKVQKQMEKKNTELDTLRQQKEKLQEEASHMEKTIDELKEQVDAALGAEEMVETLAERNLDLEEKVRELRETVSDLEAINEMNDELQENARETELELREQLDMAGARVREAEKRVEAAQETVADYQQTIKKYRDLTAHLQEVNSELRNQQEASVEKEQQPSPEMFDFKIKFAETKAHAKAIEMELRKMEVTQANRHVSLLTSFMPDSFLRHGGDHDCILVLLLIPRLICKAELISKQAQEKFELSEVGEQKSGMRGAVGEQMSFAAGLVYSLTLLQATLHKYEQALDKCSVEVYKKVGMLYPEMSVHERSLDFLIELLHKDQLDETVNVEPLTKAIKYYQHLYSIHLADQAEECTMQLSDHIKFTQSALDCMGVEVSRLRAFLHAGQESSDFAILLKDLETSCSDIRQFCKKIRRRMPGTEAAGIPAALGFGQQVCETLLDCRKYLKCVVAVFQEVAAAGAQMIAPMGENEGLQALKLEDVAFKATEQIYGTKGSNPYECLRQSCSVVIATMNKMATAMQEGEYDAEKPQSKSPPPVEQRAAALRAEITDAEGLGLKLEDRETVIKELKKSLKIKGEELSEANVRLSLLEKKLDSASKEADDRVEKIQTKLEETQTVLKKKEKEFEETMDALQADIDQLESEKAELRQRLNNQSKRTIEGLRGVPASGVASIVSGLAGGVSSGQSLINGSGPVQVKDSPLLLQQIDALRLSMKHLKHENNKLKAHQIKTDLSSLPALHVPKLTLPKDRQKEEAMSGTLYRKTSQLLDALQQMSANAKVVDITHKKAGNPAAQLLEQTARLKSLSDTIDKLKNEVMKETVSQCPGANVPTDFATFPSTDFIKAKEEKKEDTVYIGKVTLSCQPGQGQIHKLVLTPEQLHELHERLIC
UniProt P52297: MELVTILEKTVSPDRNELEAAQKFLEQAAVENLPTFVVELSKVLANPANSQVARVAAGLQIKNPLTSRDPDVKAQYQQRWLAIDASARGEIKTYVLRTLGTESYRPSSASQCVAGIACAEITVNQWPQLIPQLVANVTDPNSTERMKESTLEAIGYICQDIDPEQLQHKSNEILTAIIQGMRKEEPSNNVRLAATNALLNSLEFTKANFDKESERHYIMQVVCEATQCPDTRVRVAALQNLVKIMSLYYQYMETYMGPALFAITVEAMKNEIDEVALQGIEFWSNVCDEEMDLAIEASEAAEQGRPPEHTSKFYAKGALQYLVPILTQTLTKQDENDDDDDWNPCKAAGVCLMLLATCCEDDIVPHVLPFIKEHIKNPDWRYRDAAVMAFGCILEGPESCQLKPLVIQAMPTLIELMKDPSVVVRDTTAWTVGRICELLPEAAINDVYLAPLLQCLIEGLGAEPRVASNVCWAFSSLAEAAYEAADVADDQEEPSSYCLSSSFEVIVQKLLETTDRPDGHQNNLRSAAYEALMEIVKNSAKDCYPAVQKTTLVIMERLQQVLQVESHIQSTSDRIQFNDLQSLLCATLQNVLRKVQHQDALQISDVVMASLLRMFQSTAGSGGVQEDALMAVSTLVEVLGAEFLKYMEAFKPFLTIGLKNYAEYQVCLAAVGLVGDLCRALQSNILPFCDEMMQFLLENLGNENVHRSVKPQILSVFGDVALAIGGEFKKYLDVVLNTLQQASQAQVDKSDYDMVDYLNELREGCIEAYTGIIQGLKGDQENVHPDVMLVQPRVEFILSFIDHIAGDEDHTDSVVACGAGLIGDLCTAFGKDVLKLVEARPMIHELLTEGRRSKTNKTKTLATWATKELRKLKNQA

Experiment [3] addresses GST–xDnaJB6-L (Xenopus laevis). As to the kind of experiment: condition: only with RanGTP (RanQ69L-GTP, 15 μM) added to the extract; pull-down; GST–xDnaJB6-L on protein A Dynabeads coated with anti-GST antibody, incubated in CSF-arrested Xenopus egg extract with 15 μM RanQ69L-GTP, 15 min at 20°C then 30 min on ice; three washes in CSF-XB; western blot; only the target purified.

In experiment [4] the target is GST–xDnaJB6-L (Xenopus laevis). Put plainly: pull-down; GST–xDnaJB6-L on protein A Dynabeads coated with anti-GST antibody, incubated in CSF-arrested Xenopus egg extract without RanGTP, 15 min at 20°C then 30 min on ice; three washes in CSF-XB; western blot; only the target purified.

These are yes or no findings as the source states them, for the method shown. Binding seen in cells or lysates may run through a third protein. For some of these results: Binding calls can cover weak binding; strength is not graded here.

Take “dynactin subunit p150Glued (from UniProt Q6PCJ1 1-1232)”: the binding result in experiment [1] is “binds”; in experiment [2], “no binding”.
As for importin-β (from UniProt P52297 1-876), the binding result in experiment [3] is “no binding”; in experiment [4] it was “binds”.

The record behind these values is publication PMC6589090.
